Legend:
MCF-7 cells = assay: MTT assay, antiproliferative activity, MCF-7 breast carcinoma cells; assay type: cell-based; details: therapeutic index, WI38 vs MCF-7
Procedure: (§1) The anticancer activity of the OSe was performed using the MTT assay against liver (HepG2) and breast (MCF-7) carcinoma cells, as well as normal WI-38 cells following the reported method. Experimental details can be found in the Supplementary Materials Section S1.
(§2) Accordingly, the anticancer properties of the OSe hybrids were assessed against two cancer cell lines, i.e., HepG2 and MCF-7 cells. Furthermore, their corresponding cytotoxicity was also estimated against the immortalized lung WI-38 fibroblasts employing the MTT assay. The Adriamycin cancer drug was used as the positive control.
(§3) 1.1. The biological assays
(§4) 1.1.1. The anticancer activity
(§5) The breast adenocarcinoma (MCF-7), Hepatocellular carcinoma (HEPG-2), and normal fibroblast (WI-38) cells were obtained from ATCC via Holding company for biological products and vaccines (VACSERA), Cairo, Egypt. The reagents […] medium, MTT, DMSO, and fetal bovine serum was obtained from Sigma Aldrich. Dulbecco’s modified Eagle’s medium was used as the culture medium for the cells, and the cytotoxicity was evaluated using the reported MTT assay. Doxorubicin was used as the positive reference, and the IC50 values were obtained from the corresponding dose-response curve.
(§6) This colorimetric assay is based on converting the yellow tetrazolium bromide (MTT) to a purple formazan derivative by mitochondrial succinate dehydrogenase in viable cells. Cell lines were cultured in […] medium with 10% fetal bovine serum. Antibiotics added were 100 units/ml penicillin and 100µg/ml streptomycin at 37 C in a 5% Co2 incubator. The cell lines were seeded in a 96-well plate at a density of 1.0x10^4 cells/well. at 37 C for 48 h under 5% […]
Finally, dimethyl sulfoxide (DMSO) in the volume of 100 µl is added to each well to dissolve the purple formazan formed. […]

HepG2 cells = assay: MTT assay, antiproliferative activity, HepG2 liver carcinoma cells; assay type: cell-based; details: therapeutic index, WI38 vs HepG2
Procedure: as §1
as §2, with “control. The concentration inhibition, 50%, needed to kill half of the cells (IC50) was estimated from (concentration-response plots) and tabulated in Table 1.” for “control.”
as §3, §4, §5, §6
Finally, dimethyl sulfoxide (DMSO) in the volume of 100 µl is added to each well to dissolve the purple formazan formed. The colorimetric assay is measured and recorded at an absorbance of 570 nm using a plate reader (EXL 800, USA). […]

| Compound | MCF7 TI (IC50 WI38 / IC50 MCF-7) (MCF-7 cells) | HepG2 TI (IC50 WI38 / IC50 HepG2) (HepG2 cells) |
| --- | --- | --- |
| COc1cccc2c1C(=O)c1c(O)c3c(c(O)c1C2=O)C[C@@](O)(C(=O)CO)C[C@@H]3O[C@H]1C[C@H](N)[C@H](O)[C@H](C)O1 [Adriamycin, reference compound] | 1.6 | 1.5 |
| COC(=O)c1cc([Se]C#N)ccc1N [Compound 4, Methyl 2-amino-5-selenocyanatobenzoate] | 2.3 | 4.8 |
| COC(=O)c1cc([Se][Se]c2ccc(N)c(C(=O)OC)c2)ccc1N [Compound 5, dimethyl 5,5′-diselanediylbis(2-aminobenzoate)] | 3.6 | 5 |
| CCOC(=O)C(C#N)=NNc1ccc([Se][Se]c2ccc(NN=C(C#N)C(=O)OCC)c(C(=O)OC)c2)cc1C(=O)OC [Compound 6, dimethyl 5,5′-diselanediylbis(2-(2-(1-cyano-2-ethoxy-2-oxoethylidene) hydrazinyl) benzoate)] | 2.7 | 2.6 |
| COC(=O)c1cc([Se]C)ccc1N [Compound 14, methyl 2-amino-5-(methylselanyl) benzoate] | 11 | 17 |
| COC(=O)c1cc([Se]Cc2ccccc2)ccc1N [Compound 15, methyl 2-amino-5-(benzylselanyl) benzoate] | 2 | 3.9 |
| COC(=O)c1cc([Se]CC(=O)Nc2ccccc2)ccc1N [Compound 16, methyl 2-amino-5-((2-oxo-2-(phenylamino)ethyl)selanyl) benzoate] | 1.4 | 2.3 |

— article PMC9775310, “Anticancer, Antimicrobial, and Antioxidant Activities of Organodiselenide-Tethered Methyl Anthranilates” (Biomolecules, 2022)
